# Results taken from the supplement of paper PMC10398353.
# Counter-ions that a name gives are not always drawn. ± gives the standard deviation of the averaged measurements. Some of the results follow. Single values of this set are uncertain.
# Tested on: Salmonella enterica serovar Typhimurium ST313 D23580
# Experiment: normalized bacterial growth (OD600 20 h minus 0 h, interquartile-mean normalized) (fraction of plate interquartile mean); higher = more bacterial growth (less inhibition)
# Conditions: LPM (pH 5.8, low phosphate, low Mg2+), concentration: 10 µM, temperature: 37 °C
row,Compound,normalized bacterial growth
1,C#CCCCCCCCCCCCC(O)CC(O)CO (stereo not given),0.627
2,CC1(C)CCC[C@](C)([C@H]2CC[C@]3(C)[C@@H]2[C@H](O)C[C@@H]2[C@@]4(C)CC[C@H](O)C(C)(C)[C@@H]4[C@@H](O)C[C@]23C)O1,0.89
3,CC(C)NCC(O)COc1ccc(COCCOC(C)C)cc1 (stereo not given),1.11
4,CC(C)NCC(O)COc1ccc(COCCOC(C)C)cc1 (stereo not given) [Bisoprolol hemifumarate salt],1.01
5,Nc1nc(=S)c2ncn([C@@H]3O[C@H](CO)[C@@H](O)[C@H]3O)c2[nH]1 [Thioguanosine],0.489
6,CC(=O)OC[C@@]1(O)C[C@@]23CC[C@@H]4c5ccoc5CC[C@@]4(C)[C@@H]2CC[C@@H]1C3,0.791 ± 0.15
7,COc1cc2c(cc1CC=C(C)C)C(=O)C[C@@H](c1ccc(O)cc1)O2,0.991
8,CC(N)=O [Acetamide],0.977
9,COc1ccc(-c2cc(=O)c3c(O)cc(O)cc3o2)cc1O,0.993
10,COc1cc2ccc(=O)oc2c(OC)c1OC,0.954
11,O=C([O-])[C@H]1/C(=C/CO)O[C@@H]2CC(=O)N21.[Li+],1.12
12,CC(=O)N[C@@H](CC(C)C)C(=O)O,1.24
13,Nc1nc(=O)c2nc(CNc3ccc(C(=O)N[C@@H](CCC(=O)O)C(=O)O)cc3)cnc2[nH]1,1.22
14,C=CC[S+]([O-])C[C@H](N)C(=O)O (mixture of isomers),1.14
15,COc1c2ccoc2nc2c(OC)c(OCC(O)C(C)(C)O)ccc12 (stereo not given) [Evoxine],0.936
16,COc1c2ccoc2nc2c(OC)c(OCC(O)C(C)(C)O)ccc12 (stereo not given),0.941
17,CCc1cccc(N(C)C(=N)Nc2cccc3ccccc23)c1,0.933
18,CN1CCc2cc3c(cc2C(=O)Cc2ccc4c(c2C1)OCO4)OCO3,1.09
19,CC[C@H]1OC(=O)[C@H](C)[C@@H](O[C@H]2C[C@@](C)(OC)[C@@H](O)[C@H](C)O2)[C@H](C)[C@@H](O[C@@H]2O[C@H](C)C[C@H](N(C)C)[C@H]2O)[C@](C)(O)C[C@@H](C)/C(=N\OCOCCOC)[C@H](C)[C@@H](O)[C@]1(C)O [Roxithromycin],0.392
20,CC[C@H]1OC(=O)[C@H](C)[C@@H](O[C@H]2C[C@@](C)(OC)[C@@H](O)[C@H](C)O2)[C@H](C)[C@@H](O[C@@H]2O[C@H](C)C[C@H](N(C)C)[C@H]2O)[C@](C)(O)C[C@@H](C)/C(=N\OCOCCOC)[C@H](C)[C@@H](O)[C@]1(C)O,0.636
21,Clc1ccc(C(Cn2ccnc2)OCc2c(Cl)cccc2Cl)c(Cl)c1 (stereo not given) [Isoconazole],0.957
22,NC(=O)N1c2ccccc2C=Cc2ccccc21 [Carbamazepine],0.99

row,Compound,normalized bacterial growth
1,CC[C@@H](C)[C@@H](O)[C@H](C)C(=O)[C@H](C)/C=C(\C)C[C@H](C)[C@@H]1OC(=O)[C@H]1CC,0.925
2,CN(C)CCN(Cc1cccs1)c1ccccn1 [Methapyrilene hydrochloride],0.916
3,N=C1Sc2ccccc2C2=NCCCN12,1.09
4,COc1ccc2c(c1)OCc1c-2oc2cc(OC)ccc12,0.737
5,COc1ccc([C@H]2COc3c(ccc(O)c3OC)C2)c(OC)c1O,0.979
6,COc1c(O[C@@H]2O[C@H](CO)[C@@H](O)[C@H](O)[C@H]2O)cc2c(c1OC)-c1ccc(SC)c(=O)cc1[C@@H](NC(C)=O)CC2 [Thiocolchicoside],0.732
7,C[C@@H](N)[C@H]1CC[C@H](C(=O)Nc2ccncc2)CC1,0.896
8,O=C(Cn1ccnc1[N+](=O)[O-])NCCO,1.27
9,CC(=O)OCC(COC(C)=O)OC(C)=O,1.03
10,"N=C(N)SCCc1cccc(CCSC(=N)N)c1 [""1,3-PBIT dihydrobromide""]",1.1
11,O=c1cc(-c2ccc(O)cc2)oc2cc(O)cc(O)c12,1.4
12,CCOc1cccc(C(=O)c2ccc(O)c(O)c2O)c1,1.05
13,O=C(N[C@@H](Cc1ccccc1)C(=O)CCl)OCc1ccccc1 [Z-L-Phe chloromethyl ketone],1
14,COc1cc(C(=O)O)cc(OC)c1O,1.11
15,Cc1cc2c(cc1Cl)N(C(=O)Nc1ccc(Oc3cccnc3C)nc1)CC2,0.73
16,Cc1scc2c1N(C(=O)CN1CCN(C)CC1)c1ccccc1NC2=O [Telenzepine dihydrochloride],1.1
17,Cc1scc2c1N(C(=O)CN1CCN(C)CC1)c1ccccc1NC2=O,1.21
18,"CN(C)CCC(c1ccc(Cl)cc1)c1ccccn1 (single isomer, unassigned; (+)) [(+)-Chlorpheniramine maleate]",0.694
19,C=C1c2cccc(O)c2C(=O)C2=C(O)[C@]3(O)C(=O)C(C(N)=O)=C(O)[C@@H](N(C)C)[C@@H]3[C@@H](O)[C@H]12,0.0993
20,c1ccc(C2CN3CCSC3=N2)cc1 (stereo not given) [Tetramisole hydrochloride],0.611
21,COc1cc2cc3c4cc(OC)c(OC)cc4cc[n+]3c(C)c2cc1OC [Coralyne chloride hydrate],0.851
22,COc1cc2cc3c4cc(OC)c(OC)cc4cc[n+]3c(C)c2cc1OC,0.925

row,Compound,normalized bacterial growth
1,CC(COc1ccc(/C=C/c2ccccc2)cc1)[N+](C)(C)C (stereo not given),0.823
2,OC[C@H]1O[C@H]([S-])[C@H](O)[C@@H](O)[C@@H]1O.[Au+] [Aurothioglucose],0.92
3,OC[C@H]1O[C@H]([S-])[C@H](O)[C@@H](O)[C@@H]1O.[Au+],1.04
4,CCC(=O)N1CCN(C(=O)c2ccccc2)CC1,1.21
5,Cc1cc(=O)oc2cc(O)ccc12 [Hymecromone],1.17
6,CNC(=O)c1cc2c(cn1)[nH]c1ccccc12 [N-Methyl-beta-carboline-3-carboxamide],0.895
7,CNc1ncnc2c1ncn2[C@H]1C[C@H](OP(=O)(O)O)[C@@H](COP(=O)(O)O)O1,1.16
8,COc1ccc(CN(CCN(C)C)c2ccccn2)cc1 [Pyrilamine maleate],0.905
9,CCCNC(C)C(=O)Nc1ccccc1C (stereo not given) [Prilocaine hydrochloride],0.861
10,Nc1ncn([C@@H]2O[C@H](CO)[C@@H](O)[C@H]2O)c(=O)n1 [5-azacytidine],0.0558
11,CC(COc1ccccc1)N(CCCl)Cc1ccccc1 (stereo not given) [Phenoxybenzamine hydrochloride],1.17
12,CC(=O)c1ccc(S(=O)(=O)NC(=O)NC2CCCCC2)cc1 [Acetohexamide],1.15
13,CCCCC[C@H](O)/C=C/[C@@H]1[C@@H](C/C=C\CCCC(=O)O)[C@@H](O)C[C@H]1O [Dinoprost trometamol],0.874
14,CCCCC[C@H](O)/C=C/[C@@H]1[C@@H](C/C=C\CCCC(=O)O)[C@@H](O)C[C@H]1O,0.365
15,CCSC(=N)N [S-Ethylisothiourea hydrobromide],1.13
16,COc1cc(-c2coc3cc(O)c(OC)c(O)c3c2=O)cc(O)c1OC,0.941
17,CCOC(=O)OC(C)OC(=O)[C@@H]1N2C(=O)[C@@H](NC(=O)[C@H](N)c3ccccc3)[C@H]2SC1(C)C (stereo not given in full) [Bacampicillin hydrochloride],0.683
18,CCOC(=O)OC(C)OC(=O)[C@@H]1N2C(=O)[C@@H](NC(=O)[C@H](N)c3ccccc3)[C@H]2SC1(C)C (stereo not given in full),1.14
19,CCOC(=O)[C@H](CCc1ccccc1)N[C@H]1CCc2ccccc2N(CC(=O)O)C1=O,1.37
20,CC(C)CCC[C@@H](C)[C@H]1CC[C@H]2[C@@H]3CC[C@H]4C[C@H](O)CC[C@]4(C)[C@H]3CC[C@]12C,1.11
21,O=C1CCC(c2ccc(-n3ccnc3)cc2)=NN1 [Imazodan],0.852
22,COC1=C(OC)C(=O)C(CCCCCCCCCCO)=C(C)C1=O,0.626

# For convenience, part of the list above:
row,Compound,normalized bacterial growth
6,CNC(=O)c1cc2c(cn1)[nH]c1ccccc12 [N-Methyl-beta-carboline-3-carboxamide],0.895
7,CNc1ncnc2c1ncn2[C@H]1C[C@H](OP(=O)(O)O)[C@@H](COP(=O)(O)O)O1,1.16
8,COc1ccc(CN(CCN(C)C)c2ccccn2)cc1 [Pyrilamine maleate],0.905
9,CCCNC(C)C(=O)Nc1ccccc1C (stereo not given) [Prilocaine hydrochloride],0.861

# Going on with the list:

row,Compound,normalized bacterial growth
1,CCNC(=O)N1CCN(CCCC(c2ccc(F)cc2)c2ccc(F)cc2)CC1 [Amperozide hydrochloride],0.999
2,Fc1ccc(C(OCCCc2cnc[nH]2)c2ccc(F)cc2)cc1,0.875
3,NC1(C(=O)O)CCCC1,1.01
4,NCCCC[C@H](N[C@@H](CCc1ccccc1)C(=O)O)C(=O)N1CCC[C@H]1C(=O)O [Lisinopril],1.16
5,NCCCC[C@H](N[C@@H](CCc1ccccc1)C(=O)O)C(=O)N1CCC[C@H]1C(=O)O,1.07
6,CC(C)(C)NC[C@H](O)COc1nsnc1N1CCOCC1 [Timolol maleate salt],1.07
7,CC(C)(C)NC[C@H](O)COc1nsnc1N1CCOCC1,1.3
8,CC(C)(C)NC[C@H](O)COc1nsnc1N1CCOCC1 [S(-)-Timolol maleate],1.12
9,C[C@]12CCC(=O)C=C1CC[C@@H]1[C@@H]2[C@@H](O)C[C@@]2(C)[C@H]1CC[C@]2(O)C(=O)COC(=O)CCC(=O)O,1.15
10,c1ccc2c(c1)CCC[C@H]2Nc1nc2ccccc2[nH]1 [NS8593 hydrochloride],0.696
11,C[C@@]12CCc3occc3[C@H]1CC[C@@]13C[C@@H](CC[C@H]12)[C@@](O)(CO)C3,0.931 ± 0.29
12,CO/N=C(\C(=O)N[C@@H]1C(=O)N2C(C(=O)O)=C(CSc3nc(=O)c(O)nn3C)CS[C@H]12)c1csc(N)n1 [Ceftriaxone sodium],1.02
13,CO/N=C(\C(=O)N[C@@H]1C(=O)N2C(C(=O)O)=C(CSc3nc(=O)c(O)nn3C)CS[C@H]12)c1csc(N)n1,1.25
14,Oc1ccccc1O [Pyrocatechol],1.09
15,CCCCN1CCC(COC(=O)c2cc(Cl)c(N)c3c2OCCO3)CC1,0.971
16,COc1cccc(NC(=O)/C=C/c2ccc(Cl)cc2)c1,1.13
17,FC(F)(F)c1ccccc1-n1ccnc1 [1-[2-(Trifluoromethyl)phenyl]imidazole],1.27
18,CCCCOC(=O)NS(=O)(=O)c1sc(CC(C)C)cc1-c1ccc(Cn2c(CC)nc3c(C)cc(C)nc32)cc1,0.65
19,O=C(O)CS,0.97
